Assay: in vivo
Conditions: rat, po
Description: Groups of 5 male CH. River rats, having an average weight of 125 g, kept on a water diet for 18 hours prior to the test, are orally administered the test materials, dissolved in neutral olive oil (1 ml/100 g), at dosages of 250-500-1000 and 2000 mg/kg.
The death rate is recorded 7 days after the administration: the lethal dose 50 (LD 50) is determined according to the method by Litchfield & Wilcoxon.

**Q.** Which LD50 at 168 h does the source give for `COc1ccc2cc([C@H](C)C(=O)O)ccc2c1` [naproxen] here?
**A.** 290 mg/kg

— patent US4356188A, “1-Naphthyl-acetic acid derivatives and their therapeutic applications” (Institut de Recherche Scientifique "I.R.S.", priority 1978, dated 1982)
